Reference: patent US7091026B2, “Artificial endonuclease” (University of Iowa Research Foundation, priority 2001, dated 2006)
Entries after “also recorded” stand apart in the source; their conditions may differ. At least one peptide structure holds a part that was inferred or is arguable (an end, a ring closure or a residue). Where no end group is shown, it is not given here.

Experiments:
[1] = system: supercoiled pBR322 plasmid DNA; experiment: DNA gel shift assay (agarose gel electrophoresis); assay type: binding; settings: 5–25 μM ligand, in words
Protocol: DNA Gel Shift Assays. The affinity of EuP3, EuP2, and each free peptide for supercoiled plasmid DNA was examined by agarose gel electrophoresis. Plasmid (pBR322, New England Biolabs, Inc.) was incubated for 15 minutes at room temperature with increasing concentrations of each ligand (5–25 μM), prior to the addition of loading dye. Each lane contained 1 μg plasmid (50 μM base pairs) in 10 mM Tris buffer at pH 8.0.

[2] = Circular dichroism titration with Eu(III); assay type: physicochemical; settings: CD, molar ellipticity at 222 nm
[3] = Circular dichroism titration with Ca(II); assay type: physicochemical; settings: CD, molar ellipticity at 222 nm, metal-saturated form

Sequence | gel shift / affinity for supercoiled plasmid DNA [1] | α-helicity of free peptide ([2]; before addition of Eu(III)) [%] | α-helicity, Eu(III)-saturated form ([2]; excess Eu(III)) [%] | α-helicity with excess Ca(II) [3] [%]
ERRRQQLSSEAETIFGDGDKDEIKIWFQNKRAK [P2] | neither P2 nor EuP2 has appreciable DNA affinity; also recorded: not seen |  |  | 
TERRRQQLDKDGDGTIDEREIKIHFQNKRAKIK [P3] | a gel shift is also observed; also recorded: attenuated shift | 9 | 25 | 14
